From PubChem BioAssay AID2685 (National Center for Advancing Translational Sciences (NCATS), 2010) come the findings set out here.

The nature of this assay: qHTS Assay for Lipid Storage Modulators in Drosophila S3 Cells.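 As to cell number change: cells counted by Cell Tracker Red CMTPX staining in the red channel.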 Conditions: BODIPY lipid droplet fluorescence, 18-24 h; for cell number change: measured here: cell count max response, cells fed with added oleic acid. Summed up: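 Laser-scanning cytometry quantifies lipid droplet accumulation (500–530 nm total intensity; droplet/cell object ratio) in oleic acid-fed (400 uM added) Drosophila S3 cells treated with a concentration series. 20 uM Triacsin C defined 100% inhibition.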
(qHTS replaces the single test concentration by a dilution series.)

Setting [1] is: measured here: lipid fluorescence (Fed channel) AC50, cells fed with added oleic acid.
The mark [2] stands for this setting: measured here: cell number channel AC50, cells fed with added oleic acid.

Structures are written as SMILES. Some of the results follow. These are further read-outs of the screen, such as a control signal, another cell line or another target. No call is given for them. Most of these compounds were active or inconclusive in the main read-out, so they are no random draw. Words in brackets tell the shape of the fitted curve; partial curves, single points and poor fits give uncertain potencies.

As to `CN(C)c1ccc(-c2ccc3c(=O)c4ccccc4n(C)c3c2)cn1`, under setting [1], the AC50 (as a rule, the midpoint of the concentration-response curve, whichever way the signal moves) was 16400 nM [falling, single point].

As to `CSc1nc(-c2ccco2)cc(-c2ccccc2)c1C#N`, the cell number change was -32.7%. The AC50 under setting [2] was 164 nM [falling, full curve, poor fit]. For the same compound, the concentration at half-maximal activity (AC50) under setting [1] was 5.17 nM [falling, full curve, poor fit].

With `OC1CN=C2Sc3ccccc3N2C1` (stereo unspecified), the cell number change was -213%. Under setting [2], the AC50 is 29100 nM [falling, partial curve]. Moreover, under setting [1], the AC50 was 20600 nM [falling, partial curve].

Consider `O=C1C=C(c2cc(Cl)cc(Cl)c2)C[C@@H](c2ccc3c(c2)OCO3)C1`, for which the cell number change was -7.18%. The AC50 under setting [1] was 116 nM [rising, full curve].

On to `COc1ccc(C(=O)Nc2ccccc2C(N)=O)cc1`, for which the cell number change is 7.28%.

Consider `O=C(COC(=O)c1cc(=O)[nH]c2ccccc12)NC(=O)NC1CCCCC1`, for which the cell number change stood at 2.59%. The AC50 under setting [1] was 116 nM [falling, full curve, poor fit].

In the case of `CC(C)(C)C(=O)Nc1nnc(SCC(=O)NC2CC2)s1`, the cell number change amounted to 14.7%. Also, the AC50 under setting [1] was 29100 nM [falling, single point].

With `O=C(Nc1ncc(Cc2ccc(Cl)cc2Cl)s1)c1ccc([N+](=O)[O-])cc1`, the cell number change was -11.4%. The AC50 under setting [2] was 146 nM [falling, full curve, poor fit].

For the compound `CCOc1ccc(CCNC(=O)COC(=O)c2ccc(OC(C)C)cc2)cc1OCC`, the cell number change is -95%. Also, the AC50 under setting [2] is 3260 nM [falling, partial curve]. Besides, the AC50 under setting [1] is 1160 nM [falling, full curve].

`COc1ccc(NC(=O)c2cccnc2)c([N+](=O)[O-])c1`: the cell number change worked out at 6.73%.

`CCN1CCN(C(=O)c2ccccc2N(Cc2ccccc2)S(=O)(=O)c2ccc(OC)cc2)CC1`: the cell number change came to 14%. Moreover, the AC50 under setting [1] was 29100 nM [rising, single point].

As for `FC(F)(F)c1cccc(NC(=S)Nc2ccc(Cl)cc2Cl)c1`, the cell number change is -22.1%.

In the case of `Cc1nn(-c2ccc(Cl)cc2)c2sc(C(=O)N3CCN(C(=O)c4ccco4)CC3)cc12`, under setting [2], the AC50 was 291 nM [rising, partial curve, poor fit].

Consider `CC(CCCC(C)(C)O)NC(=O)c1cc(COc2ccc3ncccc3c2)on1` (stereo unspecified), for which the cell number change is -56.8%. The AC50 under setting [2] is 10300 nM [falling, partial curve]. Besides, the AC50 under setting [1] was 7310 nM [falling, partial curve].

With `Cn1c(CCNC(=O)c2ccccc2)nc2cc(NC(=O)C3CCCCC3)ccc21`, the AC50 under setting [2] was 6510 nM [rising, single point].

For the compound `O=[N+]([O-])c1cc(S(=O)(=O)N2CCCCC2)ccc1NCCN1CCOCC1`, the cell number change was -0.797%.

Consider `CSc1ncccc1C(=O)Nc1ccc(OC(F)(F)F)cc1`, for which the cell number change came to 42.6%. Further, under setting [2], the AC50 is 461 nM [rising, full curve]. In addition, under setting [1], the AC50 was 29100 nM [rising, partial curve, poor fit].

Take `O=C(CN1C(=O)NC2(CCCCCC2)C1=O)N1CCN(S(=O)(=O)c2ccccc2)CC1`: the cell number change was -104%. Further, the AC50 under setting [2] is 29100 nM [falling, single point]. In addition, under setting [1], the AC50 is 29100 nM [falling, single point].

Turning to `O=C(Oc1ccc([N+](=O)[O-])cc1)c1cncc(Br)c1`, the cell number change is -2.57%. Further, under setting [1], the AC50 is 14600 nM [rising, single point].

Regarding `O=C(CSc1nc(C(F)(F)F)cc(=O)[nH]1)Nc1ccc2c(c1)OCCO2`, the cell number change stood at 75%. Further, the AC50 under setting [2] was 29100 nM [rising, single point].

As for `Cc1[nH]c2ccccc2c1C(c1ccncc1)N1CCCCC1` (stereo unspecified), the cell number change was -9.34%. Also, the half-maximal activity concentration (AC50) under setting [2] is 4.61 nM [falling, full curve, poor fit]. The AC50 under setting [1] is 2910 nM [falling, full curve].

As for `Cc1cc(C)c2c(n1)sc1c(=O)[nH]c(SCc3ccccc3)nc12`, the cell number change was -24.2%. For the same compound, the AC50 under setting [1] was 73.1 nM [falling, full curve].

As to `CN1CCN(CC(O)COCCOc2ccc(Br)cc2)CC1` (stereo unspecified), the cell number change amounted to 12.2%. Further, the AC50 under setting [1] was 731 nM [rising, full curve, poor fit].

Consider `COCCNC(=O)c1c(N)n(-c2ccccc2)c2nc3ccccc3nc12`, for which the cell number change was found to be 25.2%. Also, under setting [2], the AC50 was 2060 nM [rising, full curve, poor fit]. Further, the AC50 under setting [1] is 2310 nM [rising, partial curve].

`CN(CCOc1ccccc1)CC(=O)Nc1ccc(Cl)c(S(=O)(=O)N(C)C)c1`: the concentration at half-maximal activity (AC50) under setting [1] was 20600 nM [rising, single point].

Take `Cc1nc2cc(C(=O)NCCN3CCOCC3)ccc2n1-c1ccc(F)cc1F`: the AC50 under setting [2] is 6510 nM [rising, single point].

In the case of `COC(=O)c1ccc(S(=O)(=O)NCc2ccc(S(N)(=O)=O)cc2)o1`, the AC50 reads like this: under setting [2], 116 nM [falling, full curve, poor fit]; under setting [1], 206 nM [falling, full curve, poor fit].

As for `CCCCN(CC)S(=O)(=O)c1ccc2c(c1)CCCN2C(C)=O`, the cell number change came out at 22.9%. Besides, the half-maximal activity concentration (AC50) under setting [1] is 1460 nM [rising, partial curve].

Take `COc1ccc(NC(=O)C2CCN(S(=O)(=O)c3cccc4nonc34)CC2)cc1`: the cell number change is 183%. The AC50 under setting [2] was 29100 nM [rising, single point].

As for `CCOC(=O)CSC1=C(C#N)C(c2ccco2)C(C(=O)Nc2cccc(C(F)(F)F)c2)=C(C)N1` (stereo unspecified), the cell number change is -13.5%. For the same compound, the half-maximal activity concentration (AC50) under setting [1] is 231 nM [falling, full curve].

For the compound `CCOC(=O)c1c(S(=O)(=O)NCC(=O)Nc2ccccc2)c(C)n(C)c1C`, the cell number change turned out to be 92.4%. Also, the AC50 under setting [2] was 29100 nM [rising, single point].

On to `O=C1c2cccc3c(N4CCCCC4)ccc(c23)C(=O)N1c1cccc(O)c1`, for which the cell number change was -95.9%. Moreover, the AC50 under setting [2] is 10300 nM [falling, partial curve, poor fit].

Take `CCOC(=O)C1CCN(C(=O)c2ccccc2NS(=O)(=O)c2cc(C)ccc2C)CC1`: the cell number change was determined as 22.1%. Further, the AC50 under setting [1] is 259 nM [rising, full curve, poor fit].

As to `COc1ccc(CNC(=O)COC(=O)/C=C/c2cccc(Br)c2)cc1`, the cell number change stood at 12.3%. For the same compound, the half-maximal activity concentration (AC50) under setting [2] is 820 nM [falling, full curve, poor fit]. The AC50 under setting [1] was 10300 nM [falling, single point].

For the compound `CN(C)S(=O)(=O)c1ccc(Cl)c(NC(=O)CN2CCNC(=O)C2)c1`, the cell number change was -15.6%.

As for `CCOC(=O)C1=C(C)NC(SCc2cc(=O)[nH][nH]2)=C(C#N)C1c1cccs1` (stereo unspecified), the cell number change is 7.78%. Also, the AC50 under setting [1] is 651 nM [falling, single point].
